Experimental data: publication doi:10.1101/2024.07.08.602551

By UniProt entry, the sequences of proteins in these tests, tags left out. Where a name states a change or a piece, a line headed by the entry shows the natural chain unless it says otherwise.
UniProt Q9H2X0: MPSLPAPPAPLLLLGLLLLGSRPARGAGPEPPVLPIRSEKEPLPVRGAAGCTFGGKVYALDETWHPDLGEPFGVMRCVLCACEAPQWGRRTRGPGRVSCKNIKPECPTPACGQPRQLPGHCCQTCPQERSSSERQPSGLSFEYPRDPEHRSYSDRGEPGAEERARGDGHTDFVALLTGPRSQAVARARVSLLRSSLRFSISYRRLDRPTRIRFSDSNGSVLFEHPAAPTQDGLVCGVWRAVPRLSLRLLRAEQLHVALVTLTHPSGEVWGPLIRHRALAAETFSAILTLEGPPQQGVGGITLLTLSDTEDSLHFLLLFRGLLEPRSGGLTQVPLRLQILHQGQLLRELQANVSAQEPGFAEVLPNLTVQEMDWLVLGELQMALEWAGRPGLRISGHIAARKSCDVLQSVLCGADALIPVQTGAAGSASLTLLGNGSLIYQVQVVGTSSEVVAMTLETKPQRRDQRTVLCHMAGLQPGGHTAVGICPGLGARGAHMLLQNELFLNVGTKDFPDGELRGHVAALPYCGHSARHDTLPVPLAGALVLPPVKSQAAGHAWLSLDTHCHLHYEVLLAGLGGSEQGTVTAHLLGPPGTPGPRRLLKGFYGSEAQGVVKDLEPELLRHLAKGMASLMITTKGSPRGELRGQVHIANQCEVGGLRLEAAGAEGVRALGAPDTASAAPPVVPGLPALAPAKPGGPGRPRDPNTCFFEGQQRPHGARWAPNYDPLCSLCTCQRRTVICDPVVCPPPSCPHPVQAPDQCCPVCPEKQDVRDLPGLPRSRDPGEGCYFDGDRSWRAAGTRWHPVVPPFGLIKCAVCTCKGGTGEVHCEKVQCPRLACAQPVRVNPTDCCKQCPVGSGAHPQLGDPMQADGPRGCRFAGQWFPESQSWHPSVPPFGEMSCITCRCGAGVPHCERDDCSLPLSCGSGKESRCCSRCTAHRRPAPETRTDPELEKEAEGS
UniProt Q24025: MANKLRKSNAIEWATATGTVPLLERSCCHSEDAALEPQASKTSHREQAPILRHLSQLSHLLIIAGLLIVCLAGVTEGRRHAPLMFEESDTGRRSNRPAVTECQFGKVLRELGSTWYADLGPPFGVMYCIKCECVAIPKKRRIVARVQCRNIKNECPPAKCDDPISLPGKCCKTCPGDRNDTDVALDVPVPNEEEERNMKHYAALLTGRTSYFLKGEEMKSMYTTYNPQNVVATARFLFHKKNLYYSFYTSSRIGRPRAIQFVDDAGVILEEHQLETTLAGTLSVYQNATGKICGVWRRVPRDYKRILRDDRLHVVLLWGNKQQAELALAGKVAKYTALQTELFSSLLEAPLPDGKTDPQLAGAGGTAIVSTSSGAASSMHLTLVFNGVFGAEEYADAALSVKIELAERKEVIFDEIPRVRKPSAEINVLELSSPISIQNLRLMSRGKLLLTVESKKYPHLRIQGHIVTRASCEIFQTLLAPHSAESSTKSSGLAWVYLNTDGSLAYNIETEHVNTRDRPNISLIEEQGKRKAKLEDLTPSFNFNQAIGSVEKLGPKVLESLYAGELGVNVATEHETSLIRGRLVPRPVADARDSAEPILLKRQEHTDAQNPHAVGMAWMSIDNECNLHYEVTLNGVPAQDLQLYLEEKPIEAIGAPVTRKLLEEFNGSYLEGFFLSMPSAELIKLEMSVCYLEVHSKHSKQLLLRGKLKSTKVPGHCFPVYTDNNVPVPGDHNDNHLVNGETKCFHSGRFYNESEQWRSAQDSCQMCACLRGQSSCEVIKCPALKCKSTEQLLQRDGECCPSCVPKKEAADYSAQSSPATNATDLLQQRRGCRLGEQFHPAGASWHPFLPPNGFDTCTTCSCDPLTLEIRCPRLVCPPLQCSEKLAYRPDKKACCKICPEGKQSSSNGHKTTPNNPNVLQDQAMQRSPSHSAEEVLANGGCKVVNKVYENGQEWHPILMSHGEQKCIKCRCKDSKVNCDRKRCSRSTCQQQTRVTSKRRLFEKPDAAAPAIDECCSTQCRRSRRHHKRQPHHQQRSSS

Experiments:
[1] = target: T1, human Twisted gastrulation Leu103Ala (human) (UniProt Q9GZX9); test: SPR
T1 sequence: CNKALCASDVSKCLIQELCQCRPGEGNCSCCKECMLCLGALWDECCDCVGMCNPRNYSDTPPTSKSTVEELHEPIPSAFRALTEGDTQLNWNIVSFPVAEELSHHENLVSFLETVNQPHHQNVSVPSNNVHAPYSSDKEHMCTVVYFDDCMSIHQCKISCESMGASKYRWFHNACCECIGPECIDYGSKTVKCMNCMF

[2] = target: T2, Drosophila Twisted gastrulation with C-terminal ALFA tag (Drosophila) (UniProt P54356); test: co-IP
T2 sequence: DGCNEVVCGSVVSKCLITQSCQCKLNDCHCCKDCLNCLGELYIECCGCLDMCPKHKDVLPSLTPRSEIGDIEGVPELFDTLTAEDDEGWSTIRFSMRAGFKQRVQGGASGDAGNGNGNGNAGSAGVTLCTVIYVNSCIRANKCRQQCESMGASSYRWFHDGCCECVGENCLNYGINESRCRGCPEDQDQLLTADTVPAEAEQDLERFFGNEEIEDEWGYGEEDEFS

[3] = target: T3, Drosophila Tsg double mutant Leu100Ala, Δtail with ALFA tag (Drosophila) (UniProt P54356); test: co-IP
T3 sequence: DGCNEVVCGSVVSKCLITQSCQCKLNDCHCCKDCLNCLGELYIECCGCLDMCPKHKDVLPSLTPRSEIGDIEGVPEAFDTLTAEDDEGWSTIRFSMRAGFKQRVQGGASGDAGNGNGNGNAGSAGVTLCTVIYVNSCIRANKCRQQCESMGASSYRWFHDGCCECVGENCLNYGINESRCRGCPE

[4] = target: T2, Drosophila Twisted gastrulation with C-terminal ALFA tag (Drosophila); test: co-IP; remark: listed apart in the source
[5] = target: T2, Drosophila Twisted gastrulation with C-terminal ALFA tag (Drosophila); test: co-IP; remark: listed apart in the source

Row | binding [1] | binding [2] | binding [3] | binding [4] | binding [5] | Substance
1 | no binding |  |  |  |  | human ΔN-Chordin (from UniProt Q9H2X0) (domain or fragment)
2 |  | binds | no binding | binds | binds | Drosophila Short gastrulation with Myc tag (from UniProt Q24025)

Where two headings read alike, the source gives them in different places. Results are given in words; binding and its absence hold for the method and conditions named. For some assays here: In cells and extracts the contact can be indirect. For some assays here: Binding can be weak; no strength is given. For some assays here: Where a sequence is shown, tags or fusion partners need not be part of it.
